Results are given in words; binding and its absence hold for the method and conditions named. In cells and extracts the contact can be indirect. These calls come from enrichment with a bait or labelling near it, and not all partners need be listed.
Target: Myc-tagged STAT3 (bait of the mass spectrometry experiment) (UniProt P42227)
Assay: affinity purification with mass spectrometry; Myc-STAT3 transfected into cells (mESC or HEK-293T), LIF-treated; c-Myc Tag IP/Co-IP kit, 10% SDS-PAGE, Coomassie, in-gel trypsin digestion of unique bands, ion-trap MS/MS

Amino acid sequences for entries named in this document (tags omitted).
UniProt P42227: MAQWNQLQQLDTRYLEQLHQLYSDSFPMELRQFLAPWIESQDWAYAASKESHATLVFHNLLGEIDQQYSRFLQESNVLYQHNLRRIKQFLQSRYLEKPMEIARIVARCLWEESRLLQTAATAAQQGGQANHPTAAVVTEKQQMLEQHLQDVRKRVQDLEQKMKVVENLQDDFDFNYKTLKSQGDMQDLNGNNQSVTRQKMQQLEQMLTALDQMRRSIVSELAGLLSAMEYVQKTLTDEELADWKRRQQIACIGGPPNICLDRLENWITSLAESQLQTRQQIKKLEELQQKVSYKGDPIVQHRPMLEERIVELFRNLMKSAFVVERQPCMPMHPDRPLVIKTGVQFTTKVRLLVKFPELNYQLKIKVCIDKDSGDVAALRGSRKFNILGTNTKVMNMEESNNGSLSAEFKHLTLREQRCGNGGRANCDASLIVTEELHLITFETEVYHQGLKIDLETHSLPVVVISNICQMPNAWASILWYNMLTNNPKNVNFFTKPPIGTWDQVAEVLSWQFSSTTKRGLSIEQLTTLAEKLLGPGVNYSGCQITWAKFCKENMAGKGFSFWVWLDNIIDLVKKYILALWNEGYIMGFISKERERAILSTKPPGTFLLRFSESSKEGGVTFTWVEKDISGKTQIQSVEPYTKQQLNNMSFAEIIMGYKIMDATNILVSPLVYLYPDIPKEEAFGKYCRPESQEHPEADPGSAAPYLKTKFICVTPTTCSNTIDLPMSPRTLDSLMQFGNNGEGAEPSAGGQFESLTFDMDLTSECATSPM
UniProt O08537: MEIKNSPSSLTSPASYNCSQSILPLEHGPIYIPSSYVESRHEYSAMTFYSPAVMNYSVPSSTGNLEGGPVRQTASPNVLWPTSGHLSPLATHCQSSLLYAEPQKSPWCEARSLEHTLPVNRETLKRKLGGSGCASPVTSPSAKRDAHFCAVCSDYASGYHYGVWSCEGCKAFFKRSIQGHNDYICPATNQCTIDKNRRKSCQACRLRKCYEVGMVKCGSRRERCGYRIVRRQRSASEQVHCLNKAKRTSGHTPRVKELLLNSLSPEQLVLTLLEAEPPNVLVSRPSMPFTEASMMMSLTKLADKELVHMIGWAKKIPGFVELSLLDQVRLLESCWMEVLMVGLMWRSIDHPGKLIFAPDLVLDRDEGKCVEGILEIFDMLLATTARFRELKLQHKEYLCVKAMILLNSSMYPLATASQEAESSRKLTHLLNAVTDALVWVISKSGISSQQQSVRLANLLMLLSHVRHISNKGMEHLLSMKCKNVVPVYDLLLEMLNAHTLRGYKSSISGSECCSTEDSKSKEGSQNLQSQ
UniProt A6H5Z3: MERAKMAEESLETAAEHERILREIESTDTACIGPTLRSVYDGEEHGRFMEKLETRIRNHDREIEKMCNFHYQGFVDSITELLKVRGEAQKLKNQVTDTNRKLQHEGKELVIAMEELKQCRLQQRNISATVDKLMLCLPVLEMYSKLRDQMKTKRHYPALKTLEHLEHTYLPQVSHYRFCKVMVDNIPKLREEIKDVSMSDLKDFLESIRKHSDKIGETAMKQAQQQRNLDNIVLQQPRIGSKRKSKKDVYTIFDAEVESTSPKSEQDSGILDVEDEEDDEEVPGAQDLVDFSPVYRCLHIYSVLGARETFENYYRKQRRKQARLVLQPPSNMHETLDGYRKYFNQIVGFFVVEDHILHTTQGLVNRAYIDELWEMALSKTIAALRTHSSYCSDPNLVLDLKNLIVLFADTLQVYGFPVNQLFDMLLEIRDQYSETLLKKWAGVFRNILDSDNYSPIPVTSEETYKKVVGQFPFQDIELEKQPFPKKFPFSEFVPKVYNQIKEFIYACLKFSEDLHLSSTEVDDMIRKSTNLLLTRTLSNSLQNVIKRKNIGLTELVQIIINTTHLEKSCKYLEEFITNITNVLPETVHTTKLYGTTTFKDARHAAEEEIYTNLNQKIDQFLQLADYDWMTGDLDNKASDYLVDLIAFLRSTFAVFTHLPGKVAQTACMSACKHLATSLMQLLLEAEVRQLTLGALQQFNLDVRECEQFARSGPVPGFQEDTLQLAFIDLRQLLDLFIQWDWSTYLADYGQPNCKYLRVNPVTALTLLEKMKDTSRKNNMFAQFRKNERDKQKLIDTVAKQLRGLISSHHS

Row | binding | Substance
1 | binds | estrogen receptor beta (ERβ) (from UniProt O08537 1-530)
2 | binds | Sec15b (hit of the mass spectrometry experiment) (from UniProt A6H5Z3 1-810)
